No constants are given. Whether binding was seen depends on the method and setting. A result given as binding can be weak or reduced; the word gives no strength. Each block holds one molecule with its values, some of them ahead of it.
How the values were obtained:
Assay in all cases: cryo-EM structure; purified Rad24-RFC 1.8 μM, 9–1-1 clamp 2.2 μM, double tailed DNA (5′- and 3′-recessed junctions) 2.7 μM, 0.5 mM ATPγS, 5 mM MgAcetate; ice-water bath 30 min; two conformations (clamp closed, clamp open) at 3.2 Å; both purified
[1] = target: T1, Ddc1 (subunit of the S.c. 9–1-1 clamp) (S. cerevisiae) (UniProt Q08949)
T1 sequence: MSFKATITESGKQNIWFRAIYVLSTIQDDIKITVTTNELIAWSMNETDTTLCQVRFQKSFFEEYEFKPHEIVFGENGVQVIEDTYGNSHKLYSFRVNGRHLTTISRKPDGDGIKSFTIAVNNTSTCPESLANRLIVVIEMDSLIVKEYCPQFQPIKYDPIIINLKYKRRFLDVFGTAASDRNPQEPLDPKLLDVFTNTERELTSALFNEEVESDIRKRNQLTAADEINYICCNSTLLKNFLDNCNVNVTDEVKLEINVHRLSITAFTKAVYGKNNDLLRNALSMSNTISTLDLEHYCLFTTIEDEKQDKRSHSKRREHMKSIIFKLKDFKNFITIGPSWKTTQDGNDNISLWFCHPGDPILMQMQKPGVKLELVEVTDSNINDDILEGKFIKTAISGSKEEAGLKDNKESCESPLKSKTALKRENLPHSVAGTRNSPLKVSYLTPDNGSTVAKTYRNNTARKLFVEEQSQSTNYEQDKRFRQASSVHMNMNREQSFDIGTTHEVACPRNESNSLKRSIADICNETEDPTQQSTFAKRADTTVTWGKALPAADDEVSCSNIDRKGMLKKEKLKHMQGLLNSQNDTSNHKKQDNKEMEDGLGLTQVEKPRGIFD

The chains behind the UniProt entries cited, without tags or fusion partners. Where a name states a change or a piece, a line headed by the entry shows the natural chain unless it says otherwise.
UniProt Q02574: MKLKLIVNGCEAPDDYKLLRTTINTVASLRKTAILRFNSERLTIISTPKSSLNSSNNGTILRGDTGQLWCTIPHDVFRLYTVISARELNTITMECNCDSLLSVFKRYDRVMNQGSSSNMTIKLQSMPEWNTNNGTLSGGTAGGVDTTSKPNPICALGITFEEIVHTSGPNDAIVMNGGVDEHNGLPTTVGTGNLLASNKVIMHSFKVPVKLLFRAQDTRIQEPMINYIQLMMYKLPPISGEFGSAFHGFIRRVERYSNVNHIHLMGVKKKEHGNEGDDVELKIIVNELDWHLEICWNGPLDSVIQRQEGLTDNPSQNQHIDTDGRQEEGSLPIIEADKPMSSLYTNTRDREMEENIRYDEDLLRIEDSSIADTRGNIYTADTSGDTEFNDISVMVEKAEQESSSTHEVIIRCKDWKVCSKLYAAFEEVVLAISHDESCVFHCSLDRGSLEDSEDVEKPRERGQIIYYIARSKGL

[2] = target: T2, Rad17 (subunit of the S.c. 9–1-1 clamp) (S. cerevisiae) (UniProt P48581)
T2 sequence: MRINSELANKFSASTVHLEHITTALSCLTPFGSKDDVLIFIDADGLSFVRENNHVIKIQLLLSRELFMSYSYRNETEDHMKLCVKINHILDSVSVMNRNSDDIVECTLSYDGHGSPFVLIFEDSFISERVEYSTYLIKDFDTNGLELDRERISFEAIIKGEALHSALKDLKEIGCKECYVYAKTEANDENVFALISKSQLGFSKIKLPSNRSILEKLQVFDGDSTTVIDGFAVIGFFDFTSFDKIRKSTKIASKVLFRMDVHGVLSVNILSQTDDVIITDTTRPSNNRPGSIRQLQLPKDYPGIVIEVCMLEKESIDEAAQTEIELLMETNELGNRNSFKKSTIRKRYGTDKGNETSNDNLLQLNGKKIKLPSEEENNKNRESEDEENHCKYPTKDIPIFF

[3] = target: S.c. 9–1-1 DNA checkpoint clamp (Ddc1–Mec3–Rad17) (S. cerevisiae)

- binding [1]: binds
- binding [2]: binds
Molecule: His-PK-Mec3 (subunit of the S.c. 9–1-1 clamp) (from UniProt Q02574)

- binding [3]: binds
B1: Rfc2 (subunit of S.c. Rad24-RFC) (protein, UniProt P40348 1-353)
chain: MFEGFGPNKKRKISKLAAEQSLAQQPWVEKYRPKNLDEVTAQDHAVTVLKKTLKSANLPHMLFYGPPGTGKTSTILALTKELYGPDLMKSRILELNASDERGISIVREKVKNFARLTVSKPSKHDLENYPCPPYKIIILDEADSMTADAQSALRRTMETYSGVTRFCLICNYVTRIIDPLASRCSKFRFKALDASNAIDRLRFISEQENVKCDDGVLERILDISAGDLRRGITLLQSASKGAQYLGDGKNITSTQVEELAGVVPHDILIEIVEKVKSGDFDEIKKYVNTFMKSGWSAASVVNQLHEYYITNDNFDTNFKNQISWLLFTTDSRLNNGTNEHIQLLNLLVKISQL

- binding [3]: binds
B2: Rad24 (subunit of S.c. Rad24-RFC) (protein, UniProt P32641 1-659)
chain: MDSTNLNKRPLLQYSLSSLGSQITKWSSSRPTSPVRKARSTENDFLSKQDTSSILPSINDDGGEQWYEKFKPNCLEQVAIHKRKLKDVQEALDAMFLPNAKHRILLLSGPSGCSKSTVIKELSKILVPKYRQNSNGTSFRSTPNEHKVTEFRGDCIVNDLPQMESFSEFLKGARYLVMSNLSLILIEDLPNVFHIDTRRRFQQLILQWLYSSEPLLPPLVICITECEIPENDNNYRKFGIDYTFSAETIMNKEILMHPRLKRIKFNPINSTLLKKHLKFICVQNMKMLKEKNKWNKRQEVIDYIAQETGDIRSAITTLQFWATSSGSLPISTRESTISYFHAIGKVIHGSHSTNNDNEMINNLFENSNNLLSKEDFKLGILENYNTFNKGEFSISDASSIVDCLSECDNMNGLPESNEYGLREVRKTFRNISKQGHNHGTVYFPREWKVRKLQNSFKVQAEDWLNVSLYKYNAVHSFRNITLEFGYYAPLIRKCQSYKKKYILYYLKNLPSGSSGPKQTMDKFSDIMKVENGIDVVDRIGGPIEALSVEDGLAPLMDNDSNNCDHLEDQKKERDRRLRMLIDQYERNVMMANDDLEDEETSFNDDPIVDSDSDNSNNIGNETFGRSDEDESLCEILSQRQPRKAPVISESLSDSDLEIL

- binding [3]: binds
B3: Rfc3 (subunit of S.c. Rad24-RFC) (protein, UniProt P38629 1-340)
chain: MSTSTEKRSKENLPWVEKYRPETLDEVYGQNEVITTVRKFVDEGKLPHLLFYGPPGTGKTSTIVALAREIYGKNYSNMVLELNASDDRGIDVVRNQIKDFASTRQIFSKGFKLIILDEADAMTNAAQNALRRVIERYTKNTRFCVLANYAHKLTPALLSRCTRFRFQPLPQEAIERRIANVLVHEKLKLSPNAEKALIELSNGDMRRVLNVLQSCKATLDNPDEDEISDDVIYECCGAPRPSDLKAVLKSILEDDWGTAHYTLNKVRSAKGLALIDLIEGIVKILEDYELQNEETRVHLLTKLADIEYSISKGGNDQIQGSAVIGAIKASFENETVKANV

- binding [3]: binds
B4: Rfc4 (subunit of S.c. Rad24-RFC) (protein, UniProt P40339 1-323)
chain: MSKTLSLQLPWVEKYRPQVLSDIVGNKETIDRLQQIAKDGNMPHMIISGMPGIGKTTSVHCLAHELLGRSYADGVLELNASDDRGIDVVRNQIKHFAQKKLHLPPGKHKIVILDEADSMTAGAQQALRRTMELYSNSTRFAFACNQSNKIIEPLQSRCAILRYSKLSDEDVLKRLLQIIKLEDVKYTNDGLEAIIFTAEGDMRQAINNLQSTVAGHGLVNADNVFKIVDSPHPLIVKKMLLASNLEDSIQILRTDLWKKGYSSIDIVTTSFRVTKNLAQVKESVRLEMIKEIGLTHMRILEGVGTYLQLASMLAKIHKLNNKA

- binding [3]: binds
B5: Rfc5 (subunit of S.c. Rad24-RFC) (protein, UniProt P38251 1-354)
chain: MSLWVDKYRPKSLNALSHNEELTNFLKSLSDQPRDLPHLLLYGPNGTGKKTRCMALLESIFGPGVYRLKIDVRQFVTASNRKLELNVVSSPYHLEITPSDMGNNDRIVIQELLKEVAQMEQVDFQDSKDGLAHRYKCVIINEANSLTKDAQAALRRTMEKYSKNIRLIMVCDSMSPIIAPIKSRCLLIRCPAPSDSEISTILSDVVTNERIQLETKDILKRIAQASNGNLRVSLLMLESMALNNELALKSSSPIIKPDWIIVIHKLTRKIVKERSVNSLIECRAVLYDLLAHCIPANIILKELTFSLLDVETLNTTNKSSIIEYSSVFDERLSLGNKAIFHLEGFIAKVMCCLD
